Reference: patent US6156956A, “Control of fruit ripening through genetic control of ACC synthase synthesis” (The United States of America as represented by the United …, priority 1998, dated 2000)
For at least one compound, name, drawing or mass did not settle the structure.

Tested on: Cucurbita ACC synthase (EC4.4.1.14), native enzyme purified 6000-fold from induced Cucurbita pepo (zucchini) fruit slices
Assay: Characterization of purified native ACC synthase: Km for substrate (ACC synthase activity assay)
Type: biochemical
Conditions: purified native enzyme (mono-Q fraction); pyridoxal phosphate is a cofactor; read-out: Km for AdoMet

C[S+](CC[C@H](N)C(=O)O)C[C@H]1O[C@@H](n2cnc3c(N)ncnc32)[C@H](O)[C@@H]1O (stereo partly shown) [AdoMet, S-adenosyl methionine]
Km: 16.7 µM
